Record: PubChem BioAssay AID504786 (Drosophila RNAi Screening Center, 2011)
The screen tested about 21,000 reagents; below is a random part of those with a known target gene and a result. 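Primary screen; positive scores mean lost reporter signal, so the sign may be inverted from the usual convention.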 Names joined by + are all predicted targets of the reagent.

Aim: 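Knock-downs reducing HIF reporter induction by the iron chelator DFO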 (primary screen)
Cells: Drosophila S2 cells with a stable HIF luciferase reporter
Reagent: long dsRNA against Drosophila genes, about 0.2 µg dsRNA per well of a 384-well plate
Time to read-out: three days of knock-down, then 20 h of DFO before reading
Conditions: desferrioxamine (DFO) at 100 µM, an iron chelator that mimics hypoxia, for 20 h
Detection: 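Firefly luciferase driven by the mouse ldh-a hypoxia-response element, measured after 20 h of 100 µM DFO; z-scores per plate, higher means more signal lost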
Scale: z-score: higher = stronger loss of HIF reporter signal

The opening 9 records, ahead of the listing:
no.	target	DRSC id	z-score, replicate 1	z-score, replicate 2
1	mRpS23	DRSC01348	0.5	1.5
2	Pkn	DRSC06809	-0.1	-0.3
3	Pkn	DRSC06810	-0.3	-0.5
4	Ir100a	DRSC14329	-0.4	-0.9
5	bnl	DRSC13377	-0.3	-0.1
6	bnl	DRSC16913	1	0.9
7	Ugt49C1	DRSC04252	-0.3	-0.4
8	PyK	DRSC16806	-0.3	-0.7
9	Dhfr	DRSC16646	-0.3	0.2

The listing, from the start:
no.	target	DRSC id	z-score, replicate 1	z-score, replicate 2
1	mRpS23	DRSC01348	0.5	1.5
2	Pkn	DRSC06809	-0.1	-0.3
3	Pkn	DRSC06810	-0.3	-0.5
4	Ir100a	DRSC14329	-0.4	-0.9
5	bnl	DRSC13377	-0.3	-0.1
6	bnl	DRSC16913	1	0.9
7	Ugt49C1	DRSC04252	-0.3	-0.4
8	PyK	DRSC16806	-0.3	-0.7
9	Dhfr	DRSC16646	-0.3	0.2
10	CG30158	DRSC04956	-0.2	-0.1
11	CG30158	DRSC04974	-0.2	-0.1
12	CG30158	DRSC04975	-0.3	-0.3
13	CG30158	DRSC05012	-0.2	0.1
14	Cpsf73	DRSC16291	1.4	0.8
15	CG8197	DRSC07105	-0.4	-0.6
16	foxo	DRSC13017	3.2	2
17	foxo	DRSC15463	-0.4	-0.6
18	Hsp70Aa + Hsp70Bb + Hsp70Ba + 3 more	DRSC15380	1.8	2.9
19	CG13325	DRSC06362	-0.1	1.5
20	barc	DRSC11792	1.4	1.1
21	tweek	DRSC02433	-0.2	0.3
22	tweek	DRSC02434	-0.2	0.5
23	tweek	DRSC02785	0.8	2.2
24	CG10019	DRSC00279	0.2	0.8
25	beat-IIIc	DRSC02438	0.1	-0.3
26	beat-IIIc	DRSC02949	0	-0.3
27	tapas	DRSC05950	-0.2	-0.2
28	msb1l	DRSC03572	-0.3	0.4
29	CG13516	DRSC04159	-0.2	-0.3
30	tgo	DRSC17077	4.8	3.3
31	CG6126	DRSC15971	-0.3	0.1
32	Sgt	DRSC02812	-0.4	-0.3
33	CG10286	DRSC12520	-0.2	0.1
34	Obp47a	DRSC06255	-0.1	-0.3
35	CG13405	DRSC08310	-0.4	0.9
36	c(2)M	DRSC01922	-0.3	-0.3
37	Pdk1	DRSC08682	3	1.5
38	Hsc70-4	DRSC16711	5.9	5.9
39	Trs31	DRSC05975	-0.5	-0.6
40	Larp4B	DRSC08192	0.4	-0.3
41	CG13058	DRSC09941	-0.3	-0.5
42	CG7950 + Rpp14a	DRSC16353	-0.3	-0.2
43	CG13385	DRSC02259	-0.4	-0.4
44	Pcf11	DRSC05983	1	0.1
45	nuf	DRSC11379	-0.2	0.1
46	Wdr37	DRSC14500	-0.1	-0.2
47	Mgat1	DRSC07463	-0.2	0.2
48	E(spl)mgamma-HLH	DRSC16699	-0.5	-0.5
49	MstProx + Mst84Da	DRSC12597	-0.5	-0.6
50	CG13033	DRSC09913	-0.2	-0.2
51	Gpxl	DRSC06538	-0.2	-0.1
52	ValRS-m	DRSC10535	0.6	0.5
53	CG4984 + CG4975	DRSC06907	-0.2	-0.1
54	CG4984 + CG4975	DRSC06908	-0.3	-0.5
55	CG6441	DRSC02957	-0.3	-0.4
56	CG34176	DRSC00435	-0.1	-0.3
57	Rpp25	DRSC05002	0	-0.2
58	CG5273	DRSC18612	-0.3	-0.2
59	CG15239	DRSC17972	-0.2	0.3
60	CG5167	DRSC15728	-0.3	-0.5
61	CG11726	DRSC09858	-0.2	0
62	CG15708	DRSC06579	-0.2	0.3
63	Tmlh	DRSC15563	0.4	-0.2
64	tst	DRSC14212	-0.2	0
65	CG11454	DRSC00310	-0.1	0
66	Nsun5	DRSC15835	-0.2	0.2
67	Cyp4aa1	DRSC07368	-0.1	0.1
68	Fit1	DRSC08450	-0.3	-0.4
69	Atg8a	DRSC18024	-0.3	-0.6
70	Teh2	DRSC08458	-0.3	-0.6
71	Yeti	DRSC21138	0.6	1.3
72	Gsc	DRSC00755	0	-0.1
73	Or43b	DRSC07486	-0.3	-0.3
74	CG32021 (retired record)	DRSC17206	0.4	-0.2
75	CG17032	DRSC10241	-0.2	0.3
76	CG10616	DRSC09750	-0.3	-0.4
77	Rtel1	DRSC18343	-0.3	-0.3
78	CG11911	DRSC00331	-0.3	-0.3
79	CG34150	DRSC13689	-0.3	-0.3
80	Mnt	DRSC17894	0.3	0.1
81	Mnt	DRSC18480	-0.4	-0.1
82	CG40045	DRSC21232	-0.4	-0.3
83	Pcif1	DRSC11655	-0.4	-0.7
